The values below come from the supplement of paper PMC12067093, “Discovery and optimisation of a covalent ligand for TRIM25 and its application to targeted protein ubiquitination” (Chemical Science, 2025).

Sequences of proteins named here, by UniProt entry; tags and fusion partners are left off. A change or cut given only in a name is not applied to a line headed by its entry.
UniProt Q9NYH9: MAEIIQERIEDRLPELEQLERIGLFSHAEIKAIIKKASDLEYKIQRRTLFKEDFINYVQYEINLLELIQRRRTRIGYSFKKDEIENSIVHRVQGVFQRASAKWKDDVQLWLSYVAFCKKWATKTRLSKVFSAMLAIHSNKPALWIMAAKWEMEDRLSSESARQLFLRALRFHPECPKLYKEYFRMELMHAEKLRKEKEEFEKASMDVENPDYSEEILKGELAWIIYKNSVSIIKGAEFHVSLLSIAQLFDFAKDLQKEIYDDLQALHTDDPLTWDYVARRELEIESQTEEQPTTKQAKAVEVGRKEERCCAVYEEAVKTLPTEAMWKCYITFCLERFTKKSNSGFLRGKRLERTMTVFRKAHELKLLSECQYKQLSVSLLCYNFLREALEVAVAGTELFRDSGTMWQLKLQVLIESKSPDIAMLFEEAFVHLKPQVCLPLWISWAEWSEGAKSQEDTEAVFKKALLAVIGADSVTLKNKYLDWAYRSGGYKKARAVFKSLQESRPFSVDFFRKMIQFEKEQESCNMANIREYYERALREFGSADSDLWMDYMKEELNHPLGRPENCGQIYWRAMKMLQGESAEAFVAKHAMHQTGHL
UniProt Q9P0L0: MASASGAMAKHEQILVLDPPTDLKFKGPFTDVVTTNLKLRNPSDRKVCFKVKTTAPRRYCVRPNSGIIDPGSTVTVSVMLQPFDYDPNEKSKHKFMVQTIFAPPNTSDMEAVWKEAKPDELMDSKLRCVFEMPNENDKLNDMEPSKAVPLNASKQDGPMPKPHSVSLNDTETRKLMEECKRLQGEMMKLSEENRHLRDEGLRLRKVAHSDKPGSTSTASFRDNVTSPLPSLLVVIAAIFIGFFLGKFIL
UniProt Q9H269: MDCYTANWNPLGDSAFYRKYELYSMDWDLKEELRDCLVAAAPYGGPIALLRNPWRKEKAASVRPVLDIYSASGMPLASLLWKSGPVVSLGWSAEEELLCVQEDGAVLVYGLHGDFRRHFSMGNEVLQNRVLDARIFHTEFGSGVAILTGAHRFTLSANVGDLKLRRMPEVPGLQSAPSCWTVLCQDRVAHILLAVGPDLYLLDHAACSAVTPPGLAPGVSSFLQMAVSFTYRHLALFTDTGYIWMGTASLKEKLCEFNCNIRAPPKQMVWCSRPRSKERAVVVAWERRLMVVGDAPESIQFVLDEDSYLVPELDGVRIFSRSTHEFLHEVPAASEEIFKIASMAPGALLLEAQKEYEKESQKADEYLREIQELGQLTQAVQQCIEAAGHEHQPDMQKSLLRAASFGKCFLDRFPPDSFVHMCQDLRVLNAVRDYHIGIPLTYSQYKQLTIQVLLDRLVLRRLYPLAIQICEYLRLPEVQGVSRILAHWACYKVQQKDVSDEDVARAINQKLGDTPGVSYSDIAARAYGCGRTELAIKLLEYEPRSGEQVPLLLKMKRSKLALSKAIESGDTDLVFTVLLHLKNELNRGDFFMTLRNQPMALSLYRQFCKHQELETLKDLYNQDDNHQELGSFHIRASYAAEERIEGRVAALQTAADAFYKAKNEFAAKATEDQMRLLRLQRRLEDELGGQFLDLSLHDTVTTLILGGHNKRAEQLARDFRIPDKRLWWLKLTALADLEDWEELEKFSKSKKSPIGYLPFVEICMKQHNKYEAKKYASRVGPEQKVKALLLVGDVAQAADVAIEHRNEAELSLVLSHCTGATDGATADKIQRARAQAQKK
UniProt Q709C8: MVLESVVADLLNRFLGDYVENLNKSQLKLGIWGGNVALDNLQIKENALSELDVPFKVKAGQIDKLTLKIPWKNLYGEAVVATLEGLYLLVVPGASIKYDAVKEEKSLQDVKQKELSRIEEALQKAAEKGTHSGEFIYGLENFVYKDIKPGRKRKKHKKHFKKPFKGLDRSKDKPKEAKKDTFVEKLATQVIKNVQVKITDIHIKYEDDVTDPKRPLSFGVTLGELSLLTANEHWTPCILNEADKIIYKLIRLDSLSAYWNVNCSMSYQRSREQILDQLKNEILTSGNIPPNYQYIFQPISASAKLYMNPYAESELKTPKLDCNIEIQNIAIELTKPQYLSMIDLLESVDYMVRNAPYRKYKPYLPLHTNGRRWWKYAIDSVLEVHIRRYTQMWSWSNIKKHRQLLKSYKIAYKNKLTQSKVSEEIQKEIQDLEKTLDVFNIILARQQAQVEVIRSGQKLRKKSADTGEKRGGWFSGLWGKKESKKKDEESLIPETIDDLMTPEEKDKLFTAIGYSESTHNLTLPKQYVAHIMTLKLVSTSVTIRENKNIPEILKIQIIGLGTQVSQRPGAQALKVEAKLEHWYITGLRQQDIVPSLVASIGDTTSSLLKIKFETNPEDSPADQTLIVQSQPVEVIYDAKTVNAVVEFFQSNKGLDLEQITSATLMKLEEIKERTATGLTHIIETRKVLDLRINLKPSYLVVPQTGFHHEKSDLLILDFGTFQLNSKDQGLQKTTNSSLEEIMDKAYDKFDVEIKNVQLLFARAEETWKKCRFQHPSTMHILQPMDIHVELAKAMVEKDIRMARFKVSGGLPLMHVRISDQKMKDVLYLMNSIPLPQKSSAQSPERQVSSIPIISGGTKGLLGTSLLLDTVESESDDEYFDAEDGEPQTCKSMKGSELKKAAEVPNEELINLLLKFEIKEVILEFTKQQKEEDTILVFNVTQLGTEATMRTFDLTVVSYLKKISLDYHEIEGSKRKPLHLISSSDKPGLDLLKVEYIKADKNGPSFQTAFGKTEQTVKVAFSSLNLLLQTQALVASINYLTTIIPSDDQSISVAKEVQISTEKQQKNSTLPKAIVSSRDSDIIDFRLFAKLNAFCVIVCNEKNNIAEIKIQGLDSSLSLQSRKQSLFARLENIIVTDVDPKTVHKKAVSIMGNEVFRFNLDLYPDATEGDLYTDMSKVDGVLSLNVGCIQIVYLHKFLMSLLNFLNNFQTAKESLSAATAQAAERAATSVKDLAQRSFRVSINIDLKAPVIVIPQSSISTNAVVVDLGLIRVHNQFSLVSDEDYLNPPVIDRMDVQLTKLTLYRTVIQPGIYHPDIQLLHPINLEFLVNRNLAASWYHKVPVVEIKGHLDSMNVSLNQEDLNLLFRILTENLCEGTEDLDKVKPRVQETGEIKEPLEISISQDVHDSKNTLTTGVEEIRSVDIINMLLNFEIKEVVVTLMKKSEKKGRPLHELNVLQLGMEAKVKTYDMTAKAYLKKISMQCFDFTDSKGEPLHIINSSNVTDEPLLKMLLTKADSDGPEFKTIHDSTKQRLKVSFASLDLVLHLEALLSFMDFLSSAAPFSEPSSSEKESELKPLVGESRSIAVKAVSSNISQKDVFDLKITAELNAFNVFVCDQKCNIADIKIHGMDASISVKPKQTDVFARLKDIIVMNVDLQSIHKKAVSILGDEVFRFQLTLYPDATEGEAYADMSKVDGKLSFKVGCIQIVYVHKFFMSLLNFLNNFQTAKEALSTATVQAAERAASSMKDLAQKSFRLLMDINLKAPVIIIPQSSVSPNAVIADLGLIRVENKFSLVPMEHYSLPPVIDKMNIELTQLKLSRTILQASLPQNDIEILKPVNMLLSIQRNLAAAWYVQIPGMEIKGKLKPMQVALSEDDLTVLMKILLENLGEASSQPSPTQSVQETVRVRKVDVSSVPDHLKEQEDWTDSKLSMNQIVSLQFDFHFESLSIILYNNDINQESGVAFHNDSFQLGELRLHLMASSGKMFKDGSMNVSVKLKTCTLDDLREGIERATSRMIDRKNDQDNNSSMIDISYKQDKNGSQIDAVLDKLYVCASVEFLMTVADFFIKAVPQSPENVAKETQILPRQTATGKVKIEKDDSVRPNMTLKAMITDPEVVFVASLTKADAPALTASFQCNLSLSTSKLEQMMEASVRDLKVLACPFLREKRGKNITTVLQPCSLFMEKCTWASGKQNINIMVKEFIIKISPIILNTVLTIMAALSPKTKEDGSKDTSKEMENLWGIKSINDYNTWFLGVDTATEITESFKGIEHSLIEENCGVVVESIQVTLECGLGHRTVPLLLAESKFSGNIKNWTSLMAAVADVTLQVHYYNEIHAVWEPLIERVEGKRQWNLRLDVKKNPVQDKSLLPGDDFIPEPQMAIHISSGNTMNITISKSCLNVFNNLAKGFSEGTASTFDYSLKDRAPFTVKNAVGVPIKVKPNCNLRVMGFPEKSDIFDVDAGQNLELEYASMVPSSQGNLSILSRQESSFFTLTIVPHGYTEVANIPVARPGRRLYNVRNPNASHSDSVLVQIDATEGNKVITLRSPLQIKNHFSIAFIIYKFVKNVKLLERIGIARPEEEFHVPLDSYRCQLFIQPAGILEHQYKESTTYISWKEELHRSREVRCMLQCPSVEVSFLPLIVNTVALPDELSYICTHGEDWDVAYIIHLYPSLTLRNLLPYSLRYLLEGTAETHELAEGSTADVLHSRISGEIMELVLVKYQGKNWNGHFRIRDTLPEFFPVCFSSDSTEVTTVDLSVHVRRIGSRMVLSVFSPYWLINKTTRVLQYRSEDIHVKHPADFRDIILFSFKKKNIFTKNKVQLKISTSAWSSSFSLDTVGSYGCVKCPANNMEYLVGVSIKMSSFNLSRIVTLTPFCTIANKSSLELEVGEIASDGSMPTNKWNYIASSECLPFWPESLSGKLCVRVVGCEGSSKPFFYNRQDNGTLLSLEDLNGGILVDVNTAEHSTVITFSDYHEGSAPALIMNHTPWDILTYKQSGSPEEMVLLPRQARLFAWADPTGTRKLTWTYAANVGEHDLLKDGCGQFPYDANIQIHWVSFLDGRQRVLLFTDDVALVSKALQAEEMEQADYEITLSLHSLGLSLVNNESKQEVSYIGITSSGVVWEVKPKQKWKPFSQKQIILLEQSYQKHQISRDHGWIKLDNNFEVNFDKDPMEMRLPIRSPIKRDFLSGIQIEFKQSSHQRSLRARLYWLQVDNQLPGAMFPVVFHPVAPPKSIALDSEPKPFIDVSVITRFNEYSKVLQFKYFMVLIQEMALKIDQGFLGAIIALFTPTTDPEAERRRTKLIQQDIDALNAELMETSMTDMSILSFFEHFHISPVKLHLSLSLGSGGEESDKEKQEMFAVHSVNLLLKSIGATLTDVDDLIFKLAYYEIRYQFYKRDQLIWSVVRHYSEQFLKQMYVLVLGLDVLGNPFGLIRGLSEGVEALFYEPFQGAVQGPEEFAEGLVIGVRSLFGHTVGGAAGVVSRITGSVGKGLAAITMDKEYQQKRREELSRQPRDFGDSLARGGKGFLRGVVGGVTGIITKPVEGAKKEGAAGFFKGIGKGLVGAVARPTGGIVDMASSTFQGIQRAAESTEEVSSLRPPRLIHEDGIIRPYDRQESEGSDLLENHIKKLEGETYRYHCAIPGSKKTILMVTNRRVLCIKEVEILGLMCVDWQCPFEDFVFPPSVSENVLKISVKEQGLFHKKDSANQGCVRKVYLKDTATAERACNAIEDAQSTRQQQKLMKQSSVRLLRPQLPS
UniProt Q9H270: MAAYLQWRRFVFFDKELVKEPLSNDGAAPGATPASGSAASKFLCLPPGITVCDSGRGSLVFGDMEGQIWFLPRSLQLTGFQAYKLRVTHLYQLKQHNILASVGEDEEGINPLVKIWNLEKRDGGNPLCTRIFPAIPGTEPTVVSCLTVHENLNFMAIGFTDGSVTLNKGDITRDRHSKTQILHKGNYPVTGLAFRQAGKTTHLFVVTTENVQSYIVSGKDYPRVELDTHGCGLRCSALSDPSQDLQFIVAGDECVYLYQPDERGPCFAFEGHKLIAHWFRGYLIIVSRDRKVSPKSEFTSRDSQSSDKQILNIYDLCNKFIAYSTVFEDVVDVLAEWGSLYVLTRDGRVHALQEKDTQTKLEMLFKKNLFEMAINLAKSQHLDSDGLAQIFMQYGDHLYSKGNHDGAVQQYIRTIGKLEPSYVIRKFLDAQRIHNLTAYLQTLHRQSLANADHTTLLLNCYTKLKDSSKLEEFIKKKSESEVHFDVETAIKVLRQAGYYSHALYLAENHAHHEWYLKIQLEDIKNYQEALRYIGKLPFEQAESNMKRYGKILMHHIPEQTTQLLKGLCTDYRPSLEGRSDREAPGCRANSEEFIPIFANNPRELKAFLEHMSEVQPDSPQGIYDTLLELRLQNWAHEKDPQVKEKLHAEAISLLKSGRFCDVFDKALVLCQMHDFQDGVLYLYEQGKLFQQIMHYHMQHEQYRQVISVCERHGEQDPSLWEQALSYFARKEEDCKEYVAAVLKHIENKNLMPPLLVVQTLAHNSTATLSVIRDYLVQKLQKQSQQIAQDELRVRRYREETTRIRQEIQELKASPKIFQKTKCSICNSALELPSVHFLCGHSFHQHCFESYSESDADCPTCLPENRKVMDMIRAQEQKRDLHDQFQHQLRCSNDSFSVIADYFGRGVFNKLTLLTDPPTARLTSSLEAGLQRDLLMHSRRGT
UniProt P61758, whole entry: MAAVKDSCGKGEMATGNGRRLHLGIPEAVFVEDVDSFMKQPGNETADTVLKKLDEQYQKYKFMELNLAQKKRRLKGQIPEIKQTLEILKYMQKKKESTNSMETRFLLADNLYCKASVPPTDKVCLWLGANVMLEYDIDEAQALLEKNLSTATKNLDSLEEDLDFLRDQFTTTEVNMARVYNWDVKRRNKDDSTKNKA

Some of the results follow.

Compound in the test: Cc1cc(ccc1-c1ccccc1)C(=O)N1CCCN(CC1)C(=O)CCl [compound 10]
As to the kind of experiment: probe-labelled cysteine peptide fold change vs DMSO (competition) (log2 fold change); higher = less target engagement (more negative = stronger competition). As to conditions: THP-1, incubation time: 4 h.
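Also: competitive profiling in live THP-1 cells: cysteine peptides tagged with an iodoacetamide desthiobiotin (IA-DTB) probe, intensity after compound treatment relative to DMSO-treated cells.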

Take “WASHC5_Q12768_11_MLDFLAENNLCGQAILR (UniProt Q12768)”: the “probe-labelled cysteine peptide fold change” value is 0.00121 (10 µM) and -0.0122 (50 µM).

With “VPS33A_Q96AX1_416_LVCLQSVCNSGLK (UniProt Q96AX1)”, the “probe-labelled cysteine peptide fold change” value reads like this: (10 µM) 0.187; (50 µM) 0.189.

In the case of “UTP4_Q969X6_21_CVAYNNQSNR (UniProt Q969X6)”, the “probe-labelled cysteine peptide fold change” value (10 µM) is 0.215 and the “probe-labelled cysteine peptide fold change” value (50 µM) was determined as 0.152.

Turning to “VRK2_Q86Y07_239_SDVEILGYCMLR (UniProt Q86Y07)”, the “probe-labelled cysteine peptide fold change” value runs as follows: (10 µM) 0.146; (50 µM) 0.28.

With “VPS4B_O75351_384_ADPNHLVDDLLTPCSPGDPGAIEMTWMDVPGDK (UniProt O75351)”, the “probe-labelled cysteine peptide fold change” value was 0.176 (10 µM) and 0.0886 (50 µM).

As to “UTRN_P46939_2098_HQLDEIICWLTK (UniProt P46939)”, the “probe-labelled cysteine peptide fold change” value runs as follows: (10 µM) 0.0675; (50 µM) -0.109.

“UTP6_Q9NYH9_328_CYITFCLER (UniProt Q9NYH9)”: the “probe-labelled cysteine peptide fold change” value was -0.197 (10 µM) and -0.0538 (50 µM).

On to “VAPA_Q9P0L0_128_CVFEMPNENDKLNDMEPSK (UniProt Q9P0L0)”, for which the “probe-labelled cysteine peptide fold change” value runs as follows: (10 µM) -0.195; (50 µM) -0.177.

Regarding “VPS18_Q9P253_780_HVVQEEEDVQTAMACLASCPLLK (UniProt Q9P253)”, the “probe-labelled cysteine peptide fold change” value was 0.0539 (10 µM) and -0.256 (50 µM).

With “VPS28_Q9UK41_103_LDCPLAMER (UniProt Q9UK41)”, the “probe-labelled cysteine peptide fold change” value runs as follows: (10 µM) -0.133; (50 µM) -0.223.

Regarding “VPS29_Q9UBQ0_41_IQHILCTGNLCTK (UniProt Q9UBQ0)”, the “probe-labelled cysteine peptide fold change” value is -0.0356 (10 µM) and -0.187 (50 µM).

On to “WAPL_Q7Z5K2_719_TLDDSQHHQNLSLCTAALMYILSR (UniProt Q7Z5K2)”, for which the “probe-labelled cysteine peptide fold change” value is -0.181 (10 µM) and 0.025 (50 µM).

For the target “VPS4A_Q9UN37_403_LLEPVVCMSDMLR (UniProt Q9UN37)”, the “probe-labelled cysteine peptide fold change” value was 0.055 (10 µM) and -0.16 (50 µM).

Turning to “VCP_P55072_209_REDEEESLNEVGYDDIGGCR (UniProt P55072)”, the “probe-labelled cysteine peptide fold change” value was -0.0285 (10 µM) and 0.813 (50 µM).

Turning to “VPS16_Q9H269_36_EELRDCLVAAAPYGGPIALLR (UniProt Q9H269)”, the “probe-labelled cysteine peptide fold change” value reads like this: (10 µM) 0.339; (50 µM) 0.551.

As to “UTP23_Q9BRU9_35_EPYQILLDGTFCQAALR (UniProt Q9BRU9)”, the “probe-labelled cysteine peptide fold change” value was 0.0683 (10 µM) and 0.138 (50 µM).

With “VPS13C_Q709C8_2588_CQLFIQPAGILEHQYK (UniProt Q709C8)”, the “probe-labelled cysteine peptide fold change” value was determined as 0.248 (10 µM) and 0.197 (50 µM).

With “WASHC4_Q2M389_659_HLESYEILLDCYDK (UniProt Q2M389)”, the “probe-labelled cysteine peptide fold change” value reads like this: (10 µM) 0.156; (50 µM) 0.271.

For the target “VPS11_Q9H270_586_SDREAPGCR (UniProt Q9H270)”, the “probe-labelled cysteine peptide fold change” value was -0.297 (10 µM) and -0.523 (50 µM).

With “VPS16_Q9H269_408+422_CFLDRFPPDSFVHMCQDLR (UniProt Q9H269)”, the “probe-labelled cysteine peptide fold change” value was 0.0284 (10 µM) and -0.126 (50 µM).

As for “VCPIP1_Q96JH7_517_NYSFPLNNLVCSYDSVK (UniProt Q96JH7)”, the “probe-labelled cysteine peptide fold change” value (10 µM) worked out at 0.0884 and the “probe-labelled cysteine peptide fold change” value (50 µM) was 0.1.

For “VPS13C_Q709C8_1613_ITAELNAFNVFVCDQK (UniProt Q709C8)”, the “probe-labelled cysteine peptide fold change” value (10 µM) is -0.186 and the “probe-labelled cysteine peptide fold change” value (50 µM) was -0.241.

Take “WAPL_Q7Z5K2_891_ALQHCEELIQQYNR (UniProt Q7Z5K2)”: the “probe-labelled cysteine peptide fold change” value reads like this: (10 µM) 0.534; (50 µM) 0.146.

As to “VARS_P26640_1185_CSIHLQLQGLVDPAR (UniProt P26640)”, the “probe-labelled cysteine peptide fold change” value is, setting by setting: (10 µM) -0.0104; (50 µM) -0.028.

Regarding “VCL_P18206_422_IAELCDDPK (UniProt P18206)”, the “probe-labelled cysteine peptide fold change” value reads like this: (10 µM) 0.0203; (50 µM) 0.663.

Take “VPS35_Q96QK1_640_CFSEENHEPLR (UniProt Q96QK1)”: the “probe-labelled cysteine peptide fold change” value (10 µM) was found to be 0.0691 and the “probe-labelled cysteine peptide fold change” value (50 µM) is 0.135.

Consider “VPS39_Q96JC1_467_CYLHTNVALVAPLLR (UniProt Q96JC1)”, for which the “probe-labelled cysteine peptide fold change” value is, setting by setting: (10 µM) 0.218; (50 µM) 0.168.

As for “VPS35_Q96QK1_253_QIVLTGILEQVVNCR (UniProt Q96QK1)”, the “probe-labelled cysteine peptide fold change” value was found to be 0.0589 (10 µM) and 0.00614 (50 µM).

As to “VPS13C_Q709C8_2276+2289_GIEHSLIEENCGVVVESIQVTLECGLGHR (UniProt Q709C8)”, the “probe-labelled cysteine peptide fold change” value was -0.0638 (10 µM) and 0.163 (50 µM).

As to “USP9Y_O00507_674_DGQLWLCAPQAK (UniProt O00507)”, the “probe-labelled cysteine peptide fold change” value runs as follows: (10 µM) -0.00329; (50 µM) -0.161.

With “VCPIP1_Q96JH7_541_DVLVPDYGMSNLTACNWCHGTSVR (UniProt Q96JH7)”, the “probe-labelled cysteine peptide fold change” value is -0.0935 (10 µM) and -0.482 (50 µM).

For “VAPB_O95292_121_CVFELPAENDKPHDVEINK (UniProt O95292)”, the “probe-labelled cysteine peptide fold change” value is, setting by setting: (10 µM) -0.285; (50 µM) -0.0606.

With “VPS13C_Q709C8_2276_GIEHSLIEENCGVVVESIQVTLECGLGHR (UniProt Q709C8)”, the “probe-labelled cysteine peptide fold change” value is, setting by setting: (10 µM) -0.227; (50 µM) -0.117.

Regarding “VPS16_Q9H269_763_KSPIGYLPFVEICMK (UniProt Q9H269)”, the “probe-labelled cysteine peptide fold change” value (10 µM) was -0.0596 and the “probe-labelled cysteine peptide fold change” value (50 µM) is -0.435.

Take “VBP1_P61758_113_FLLADNLYCK (UniProt P61758)”: the “probe-labelled cysteine peptide fold change” value (10 µM) came to 0.447 and the “probe-labelled cysteine peptide fold change” value (50 µM) amounted to 0.0658.

As to “VAV1_P15498_83_TFLSTCCEK (UniProt P15498)”, the “probe-labelled cysteine peptide fold change” value (10 µM) is -0.0305 and the “probe-labelled cysteine peptide fold change” value (50 µM) is -0.382.

For the target “VPS11_Q9H270_586_EAPGCR (UniProt Q9H270)”, the “probe-labelled cysteine peptide fold change” value turned out to be 0.293 (10 µM) and 0.578 (50 µM).

“WARS_P23381_305+309_TDIQCLIPCAIDQDPYFR (UniProt P23381)”: the “probe-labelled cysteine peptide fold change” value is, setting by setting: (10 µM) -0.0548; (50 µM) -0.0914.
